Data from PMC4991497.
No constants are given. Whether binding was seen depends on the method and setting. Binding seen in cells or lysates may run through a third protein. Tags and fused reporters may be left off the sequences shown.

Molecular target: T1, Flag-DNM2 (UniProt P50570)
T1 sequence: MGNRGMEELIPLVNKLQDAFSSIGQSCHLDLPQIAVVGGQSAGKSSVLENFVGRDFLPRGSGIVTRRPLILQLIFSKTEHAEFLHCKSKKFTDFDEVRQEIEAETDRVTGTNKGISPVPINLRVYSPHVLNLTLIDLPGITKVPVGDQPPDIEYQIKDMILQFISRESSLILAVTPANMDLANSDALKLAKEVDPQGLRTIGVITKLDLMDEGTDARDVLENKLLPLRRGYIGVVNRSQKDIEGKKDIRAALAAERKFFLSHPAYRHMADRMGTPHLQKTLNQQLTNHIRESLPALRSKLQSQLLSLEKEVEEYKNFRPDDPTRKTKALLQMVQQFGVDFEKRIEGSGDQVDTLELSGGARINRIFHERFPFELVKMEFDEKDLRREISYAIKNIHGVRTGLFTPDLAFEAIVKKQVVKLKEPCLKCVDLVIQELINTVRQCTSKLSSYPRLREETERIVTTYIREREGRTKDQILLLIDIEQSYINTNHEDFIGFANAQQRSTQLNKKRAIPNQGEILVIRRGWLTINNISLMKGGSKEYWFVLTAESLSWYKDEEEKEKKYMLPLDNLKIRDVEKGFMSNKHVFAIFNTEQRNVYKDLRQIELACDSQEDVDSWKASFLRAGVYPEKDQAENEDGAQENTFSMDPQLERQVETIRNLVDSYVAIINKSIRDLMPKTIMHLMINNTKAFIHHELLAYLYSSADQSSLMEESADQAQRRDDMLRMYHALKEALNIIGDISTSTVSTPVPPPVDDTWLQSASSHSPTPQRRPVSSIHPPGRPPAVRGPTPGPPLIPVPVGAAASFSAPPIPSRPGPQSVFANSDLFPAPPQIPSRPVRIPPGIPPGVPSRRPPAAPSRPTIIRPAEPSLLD
Assay: co-IP; 293T cells co-transfected with Flag-DNM2 and Bif-1 or its deletion mutants; 1% Triton X-100 lysis buffer (30 mM Tris-HCl pH 7.5, 150 mM NaCl, 10% glycerol); immunoprecipitation with anti-Flag antibody; immunoblot

## Bif-1 (ΔSH3)-Myc (human) (domain or fragment)
  binding: no binding
